Taken from: PubChem BioAssay AID1671195 (Yale University, 2021)
Here is one part, drawn at random, of about 22,000 deposited reagents. About 1,510 of them (6.9%) count as active. 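Active includes knockdowns raising or lowering LDL uptake; positive z-scores mean more uptake, negative mean less.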 No sequences are given here.

Screen: 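Knockdowns that increase or decrease uptake of fluorescent LDL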 (primary screen)
System: human Huh7 hepatoma cells
Reagents: siRNA pool against human genes, 18 nM
Timing: about 2 to 2.5 days of knockdown, then 8 h LDL uptake
Conditions: DiI-labelled LDL at 30 µg/ml for 8 h, in lipoprotein-deficient serum medium
Measurement: 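Fluorescent LDL signal imaged in cells, scaled to the plate median, robust z-score for each replicate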
Reading the numbers: robust z-score: higher = more LDL uptake after knockdown
Call rule: 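Active when two or more replicates show a robust z-score above 2 or below -2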

no.	gene	PubChem SID	robust z-score, replicate 1	robust z-score, replicate 2	robust z-score, replicate 3	Outcome
1	LINC02181	SID442884867	1.71	2.32	1.45	inactive
2	PDXP	SID442901612	-1.26	-0.64	-0.878	inactive
3	LOC389365 (retired record)	SID442899255	-0.737	-0.755	-0.301	inactive
4	DUS1L	SID442896267	-0.852	0.171	-0.0832	inactive
5	ORMDL1	SID442887094	0.771	0.789	1.4	inactive
6	DRC7	SID442883200	3.42	4.81	3.68	active
7	POU2AF1	SID442889851	-0.345	2.06	-0.215	inactive
8	CYP2J2	SID442890075	0.818	0.474	0.11	inactive
9	FOXC2	SID442891789	0.141	0.427	0.167	inactive
10	MRPL24	SID442896145	-0.221	-0.556	0.0494	inactive
11	SIRT3	SID442893563	-0.568	0.269	0.405	inactive
12	BRDT	SID442902611	-2.65	-0.337	-0.358	inactive
13	MCOLN1	SID442888503	1.26	0.335	0.531	inactive
14	RASAL3	SID442886771	0.964	1.23	1.01	inactive
15	LOC401883 (retired record)	SID442897578	-0.228	-0.481	-0.493	inactive
16	CDY2A	SID442896311	-0.575	0.698	-0.898	inactive
17	AFF4	SID442889088	-0.535	1.79	0.583	inactive
18	TCTN1	SID442886022	1.68	1.11	1.08	inactive
19	SPAG1	SID442892352	0.509	0.0298	-0.00641	inactive
20	SLC38A11	SID442892845	0.4	-0.143	0.0961	inactive
21	SRSF10	SID442895291	-0.273	0.03	-0.219	inactive
22	CMTM5	SID442883352	2.73	3.46	3.32	active
23	TCEAL7	SID442886782	1.22	0.784	1.19	inactive
24	LINC00868	SID442884006	2.2	1.65	2.37	active
25	GYPB	SID442899700	-1.1	-0.162	-0.708	inactive
26	MYH7	SID442888267	0.306	0.195	1.76	inactive
27	VWA8	SID442896348	-0.304	-0.342	-0.142	inactive
28	RMI1	SID442892755	0.118	0.143	0.122	inactive
29	CCM2	SID442892059	-0.205	0.401	0.442	inactive
30	CCDC126	SID442902280	-1.03	-0.909	-1.19	inactive
31	RPL37P6	SID442891258	0.469	0.137	0.324	inactive
32	STX8	SID442887357	0.651	1.03	1.11	inactive
33	TRAPPC2L	SID442884230	2.19	2.02	0.327	active
34	ABITRAMP1	SID442893611	0.0415	-0.587	0.635	inactive
35	SEPTIN14	SID442886425	1.37	1.1	1.03	inactive
36	CD52	SID442894124	-0.667	-1.09	1.67	inactive
37	KRTAP2-4	SID442883625	2.37	2.94	2.34	active
38	ADGRB2	SID442898655	-0.081	-0.807	-0.683	inactive
39	ZC3H14	SID442887076	0.959	0.474	1.54	inactive
40	ARF3	SID442888072	-0.396	1.91	0.849	inactive
41	GPRC5A	SID442889171	0.745	0.614	0.445	inactive
42	VPS4A	SID442897101	-0.516	-0.0112	-0.517	inactive
43	WAS	SID442893924	-0.447	-0.324	0.759	inactive
44	LOC284009	SID442890760	0.286	0.213	0.617	inactive
45	EIF3J	SID442883144	7.46	2.02	4.04	active
46	ITGA6	SID442899772	0.539	-1.31	-1.23	inactive
